# Test results published in publication PMC4161973.
# No constants are given. Whether binding was seen depends on the method and setting. Sequences can lack the tags named with a protein.
# T1: GST-Kap104 (S. cerevisiae) (UniProt P38217)
# T1 sequence: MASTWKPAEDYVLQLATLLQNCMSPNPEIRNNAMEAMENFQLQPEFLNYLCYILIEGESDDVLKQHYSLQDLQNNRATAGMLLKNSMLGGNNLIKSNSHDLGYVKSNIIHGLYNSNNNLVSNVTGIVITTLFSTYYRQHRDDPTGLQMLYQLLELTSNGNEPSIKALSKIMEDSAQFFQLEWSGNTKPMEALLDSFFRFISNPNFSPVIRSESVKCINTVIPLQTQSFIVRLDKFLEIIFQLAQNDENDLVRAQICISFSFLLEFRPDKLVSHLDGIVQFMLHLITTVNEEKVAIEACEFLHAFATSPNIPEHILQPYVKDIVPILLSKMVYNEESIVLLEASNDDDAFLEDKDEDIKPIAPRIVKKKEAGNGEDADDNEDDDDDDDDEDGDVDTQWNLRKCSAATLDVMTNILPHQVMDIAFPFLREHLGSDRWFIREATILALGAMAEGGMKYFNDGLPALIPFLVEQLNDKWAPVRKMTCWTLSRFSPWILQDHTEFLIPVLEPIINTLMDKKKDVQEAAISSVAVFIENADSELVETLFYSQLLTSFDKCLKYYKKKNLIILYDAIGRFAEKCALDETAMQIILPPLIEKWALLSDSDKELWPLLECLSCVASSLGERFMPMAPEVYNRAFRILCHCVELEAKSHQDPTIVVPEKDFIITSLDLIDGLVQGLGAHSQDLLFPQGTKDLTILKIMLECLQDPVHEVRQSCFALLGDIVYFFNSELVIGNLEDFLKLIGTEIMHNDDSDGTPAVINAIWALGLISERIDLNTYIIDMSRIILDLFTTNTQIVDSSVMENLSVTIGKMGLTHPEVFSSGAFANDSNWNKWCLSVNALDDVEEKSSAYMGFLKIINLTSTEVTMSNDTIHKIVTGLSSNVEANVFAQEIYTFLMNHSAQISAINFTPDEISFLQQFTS
# T2: GST-Kap123 (S. cerevisiae) (UniProt P40069)
# T2 sequence: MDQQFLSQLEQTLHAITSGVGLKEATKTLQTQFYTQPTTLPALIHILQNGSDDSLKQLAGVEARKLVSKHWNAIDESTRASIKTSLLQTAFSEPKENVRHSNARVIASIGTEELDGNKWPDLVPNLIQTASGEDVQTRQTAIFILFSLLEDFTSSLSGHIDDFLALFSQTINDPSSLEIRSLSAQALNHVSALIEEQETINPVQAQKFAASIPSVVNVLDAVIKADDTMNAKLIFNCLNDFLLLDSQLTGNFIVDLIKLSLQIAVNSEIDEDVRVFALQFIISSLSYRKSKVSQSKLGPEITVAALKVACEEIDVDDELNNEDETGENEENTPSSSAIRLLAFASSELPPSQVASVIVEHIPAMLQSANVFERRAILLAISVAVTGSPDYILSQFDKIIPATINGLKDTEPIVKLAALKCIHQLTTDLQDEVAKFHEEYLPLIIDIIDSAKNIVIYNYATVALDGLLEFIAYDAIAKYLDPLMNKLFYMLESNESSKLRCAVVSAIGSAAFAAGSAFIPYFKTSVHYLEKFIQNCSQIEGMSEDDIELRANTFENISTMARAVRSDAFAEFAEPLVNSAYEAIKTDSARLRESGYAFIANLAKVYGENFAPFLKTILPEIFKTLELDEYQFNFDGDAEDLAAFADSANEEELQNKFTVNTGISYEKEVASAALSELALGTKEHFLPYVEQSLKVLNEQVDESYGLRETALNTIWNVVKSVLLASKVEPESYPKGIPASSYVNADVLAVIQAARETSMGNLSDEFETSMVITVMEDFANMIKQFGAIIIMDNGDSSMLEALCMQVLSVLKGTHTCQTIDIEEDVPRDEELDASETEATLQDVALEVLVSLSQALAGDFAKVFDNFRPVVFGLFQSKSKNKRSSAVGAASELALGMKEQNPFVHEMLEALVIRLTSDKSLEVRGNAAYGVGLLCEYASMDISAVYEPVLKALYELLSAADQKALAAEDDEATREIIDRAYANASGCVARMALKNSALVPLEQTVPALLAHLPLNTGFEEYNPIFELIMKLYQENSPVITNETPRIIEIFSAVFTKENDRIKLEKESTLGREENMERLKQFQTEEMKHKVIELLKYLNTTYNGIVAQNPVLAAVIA
# Assays:
# [1] = target: T1, GST-Kap104 (S. cerevisiae); test: pull-down; GST-importins immobilised on Glutathione Sepharose, incubated with purified 3.4 µM Tsr2 or 4 µM Tsr2:eS26 in PBSKMT with competing E. coli lysates for 1 hr at 4°C; Coomassie Blue staining or Western; both purified
# [2] = target: T2, GST-Kap123 (S. cerevisiae); test: as above
binder,measurement,setting,value
"Tsr2, purified recombinant (protein, UniProt Q06672 1-205) MSTQYIDETAFVQAEQGKTNLMFSDEKQQARFELGVSMVIYKWDALDVAVENSWGGPDSAEKRDWITGIVVDLFKNEKVVDAALIEETLLYAMIDEFETNVEDDSALPIAVEVINIYNDCFNLNYNKVEKLYLEWQEKQRTKKSKRVVHIEGDDDEDDEDVEDYDDEDEDEEMDEVVPDLVSSKPEPIVDEDGFELVQPKGRRKH",binding,[1],no binding (tested: 3.4 µM Tsr2)
same,binding,[2],no binding (tested: 3.4 µM Tsr2)
